According to the supplement of paper PMC4604168 (melanoma cell lines):
The other results are listed elsewhere or left out. Single values are uncertain, as repeats are few or missing.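 Imaging used 1,536-well plates; nuclei positive for cleaved PARP by antibody were divided by total DNA-stained nuclei to yield the apoptosis fraction. Doses for screening kept most cells viable, and cell lines differ markedly in resting and induced cleaved-PARP levels.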

What was measured:
Assay in all cases: cleaved PARP positive nuclei fraction relative to DMSO control; melanoma cells; higher = more apoptosis
Conditions in all cases: library dose: low library concentration; 72 h
MZ2-MEL = test system: MZ2-MEL
MeWo = test system: MeWo
RPMI7951 = test system: RPMI7951
RVH-421 = test system: RVH-421
SkMel28 = test system: SkMel28
SkMel2 = test system: SkMel2
SkMel30 = test system: SkMel30
SkMel5 = test system: SkMel5
UACC257 = test system: UACC257
UACC62 = test system: UACC62
WM115 = test system: WM115
WM1716 = test system: WM1716
WM1745 = test system: WM1745
WM3526 = test system: WM3526
WM3619 = test system: WM3619
WM451Lu = test system: WM451Lu

Structure (SMILES)	cleaved PARP positive nuclei fraction (MZ2-MEL) [%]	cleaved PARP positive nuclei fraction (MeWo) [%]	cleaved PARP positive nuclei fraction (RPMI7951) [%]	cleaved PARP positive nuclei fraction (RVH-421) [%]	cleaved PARP positive nuclei fraction (SkMel28) [%]	cleaved PARP positive nuclei fraction (SkMel2) [%]	cleaved PARP positive nuclei fraction (SkMel30) [%]	cleaved PARP positive nuclei fraction (SkMel5) [%]	cleaved PARP positive nuclei fraction (UACC257) [%]	cleaved PARP positive nuclei fraction (UACC62) [%]	cleaved PARP positive nuclei fraction (WM115) [%]	cleaved PARP positive nuclei fraction (WM1716) [%]	cleaved PARP positive nuclei fraction (WM1745) [%]	cleaved PARP positive nuclei fraction (WM3526) [%]	cleaved PARP positive nuclei fraction (WM3619) [%]	cleaved PARP positive nuclei fraction (WM451Lu) [%]
C=C(c1ccc(C(=O)O)cc1)c1cc2c(cc1C)C(C)(C)CCC2(C)C [Bexarotene] + CC1(C)NC(=O)N(c2ccc([N+](=O)[O-])c(C(F)(F)F)c2)C1=O [nilutamide] (first compound 2 µM, partner dose 1 µM)	60.5	127	60	264	48.6	69.2	31.7	74.4	38.3	33.1	143	53.5	95.8	126	97.9	122
CN1CCN(c2ccc3nc(-c4c(N)c5c(F)cccc5[nH]c4=O)[nH]c3c2)CC1 [Dovitinib] + CCCCCCCCCCCC1=C(O)C(=O)C=C(O)C1=O [Embelin] (first compound 0.1 µM, partner dose 1.2 µM)	65.8	97.5	213	45.8	86.7	120	173	162	255	125	112	62.3	137	37.9	105	23.8
Nc1ncn([C@H]2C[C@H](O)[C@@H](CO)O2)c(=O)n1 [decitabine] + COc1cc(N2CCC(N3CCN(C)CC3)CC2)ccc1Nc1ncc(Cl)c(Nc2ccccc2S(=O)(=O)C(C)C)n1 [NVP-TAE684] (first compound 0.1 µM, partner dose 0.08 µM)	109	139	36.4	101	245	120	59.7	83.1	211	191	354	85.9	189	84.2	157	121
Nc1ccn([C@@H]2O[C@H](CO)[C@@H](O)C2(F)F)c(=O)n1 [gemcitabine] + CCN(CC)CCCCNc1ncc2cc(-c3cc(OC)cc(OC)c3)c(NC(=O)NC(C)(C)C)nc2n1 [PD173074] (first compound 0.0004 µM, partner dose 0.1 µM)	145	34.1	66.7	136	107	33.7	24.9	73.1	21.3	129	54.6	24.1	98.4	55.9	128	167
Nc1ncn([C@H]2C[C@H](O)[C@@H](CO)O2)c(=O)n1 [decitabine] + CN(NC(=O)CC(=O)NN(C)C(=S)c1ccccc1)C(=S)c1ccccc1 [STA4783] (first compound 0.1 µM, partner dose 0.006 µM)	129	78.5	164	77.6	447	106	63.1	40	192	116	235	52.9	105	114	87.3	83.7
Nc1nc(F)nc2c1ncn2[C@@H]1O[C@H](CO)[C@@H](O)[C@@H]1O [fludarabine] + Cn1cncc1[C@@](N)(c1ccc(Cl)cc1)c1ccc2c(c1)c(-c1cccc(Cl)c1)cc(=O)n2C [tipifarnib] (first compound 0.2 µM, partner dose 0.01 µM)	82.3	559	57.7	131	283	216	811	188	652	208	116	172	100	527	128	242
C[C@@H](Oc1cc(-c2cnn(C3CCNCC3)c2)cnc1N)c1c(Cl)ccc(F)c1Cl [Crizotinib] + Cc1cc(N2CCOCC2)cc2[nH]c(-c3c(NC[C@@H](O)c4cccc(Cl)c4)cc[nH]c3=O)nc12 [BMS536924] (first compound 0.2 µM, partner dose 0.2 µM)	222	217	47.6	121	57.3	62.9	75.5	141	132	79.5	129	125	146	63	74.2	76.9
Nc1nc(F)nc2c1ncn2[C@@H]1O[C@H](CO)[C@@H](O)[C@@H]1O [fludarabine] + CC1(C)NC(=O)N(c2ccc([N+](=O)[O-])c(C(F)(F)F)c2)C1=O [nilutamide] (first compound 0.2 µM, partner dose 1 µM)	38.6	935	166	99.3	209	472	398	492	352	103	47.1	126	99.8	221	108	232
CS(=O)(=O)CCNCc1ccc(-c2ccc3ncnc(Nc4ccc(OCc5cccc(F)c5)c(Cl)c4)c3c2)o1 [lapatinib] + COc1ccc(-c2ccc3c(N4CCOCC4)nc(N4C[C@@H](C)O[C@@H](C)C4)nc3n2)cc1CO [KU0063794] (first compound 0.8 µM, partner dose 0.02 µM)	108	61.9	185	108	56	118	257	131	50.4	50.6	90.8	45.1	79.2	91.5	115	130

Quoted from the listing.
Under cleaved PARP positive nuclei fraction (WM3619) [%], C=C(c1ccc(C(=O)O)cc1)c1cc2c(cc1C)C(C)(C)CCC2(C)C [Bexarotene] + CC1(C)NC(=O)N(c2ccc([N+](=O)[O-])c(C(F)(F)F)c2)C1=O [nilutamide] (first compound 2 µM, partner dose 1 µM) is listed with 97.9
Under cleaved PARP positive nuclei fraction (SkMel30) [%], CS(=O)(=O)CCNCc1ccc(-c2ccc3ncnc(Nc4ccc(OCc5cccc(F)c5)c(Cl)c4)c3c2)o1 [lapatinib] + COc1ccc(-c2ccc3c(N4CCOCC4)nc(N4C[C@@H](C)O[C@@H](C)C4)nc3n2)cc1CO [KU0063794] (first compound 0.8 µM, partner dose 0.02 µM) is listed with 257
